Assay [1] addresses T1, NFAT1(1-460)-GFP fusion protein (UniProt Q60591).
T1 sequence: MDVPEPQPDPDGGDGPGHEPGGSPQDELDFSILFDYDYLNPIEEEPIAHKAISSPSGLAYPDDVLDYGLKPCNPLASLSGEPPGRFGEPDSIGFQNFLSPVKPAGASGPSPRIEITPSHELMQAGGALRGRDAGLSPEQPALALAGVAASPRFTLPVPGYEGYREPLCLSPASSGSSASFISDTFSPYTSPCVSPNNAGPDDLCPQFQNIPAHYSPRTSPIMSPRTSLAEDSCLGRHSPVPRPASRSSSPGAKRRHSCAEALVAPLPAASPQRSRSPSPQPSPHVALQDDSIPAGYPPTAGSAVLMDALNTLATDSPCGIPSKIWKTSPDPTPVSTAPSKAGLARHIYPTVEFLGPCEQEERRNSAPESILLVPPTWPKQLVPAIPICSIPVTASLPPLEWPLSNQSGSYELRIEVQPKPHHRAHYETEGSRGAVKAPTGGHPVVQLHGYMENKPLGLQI
Put plainly: co-IP; GFP-tagged protein immunoprecipitated from transfected cells, blot for the partner; lysis buffer with high Ca2+ (2 mM CaCl2).

Protein sequences, listed by entry. Tags and fused reporters are not part of them.
UniProt Q96D31: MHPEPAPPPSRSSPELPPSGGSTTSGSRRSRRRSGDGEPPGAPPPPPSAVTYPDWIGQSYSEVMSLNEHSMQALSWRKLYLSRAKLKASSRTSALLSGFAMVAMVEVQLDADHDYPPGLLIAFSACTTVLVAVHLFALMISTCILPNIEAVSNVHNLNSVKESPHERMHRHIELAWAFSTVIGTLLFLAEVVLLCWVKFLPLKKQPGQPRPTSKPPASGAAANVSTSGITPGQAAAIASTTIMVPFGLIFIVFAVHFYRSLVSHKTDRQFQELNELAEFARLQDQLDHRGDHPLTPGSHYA
UniProt P24588: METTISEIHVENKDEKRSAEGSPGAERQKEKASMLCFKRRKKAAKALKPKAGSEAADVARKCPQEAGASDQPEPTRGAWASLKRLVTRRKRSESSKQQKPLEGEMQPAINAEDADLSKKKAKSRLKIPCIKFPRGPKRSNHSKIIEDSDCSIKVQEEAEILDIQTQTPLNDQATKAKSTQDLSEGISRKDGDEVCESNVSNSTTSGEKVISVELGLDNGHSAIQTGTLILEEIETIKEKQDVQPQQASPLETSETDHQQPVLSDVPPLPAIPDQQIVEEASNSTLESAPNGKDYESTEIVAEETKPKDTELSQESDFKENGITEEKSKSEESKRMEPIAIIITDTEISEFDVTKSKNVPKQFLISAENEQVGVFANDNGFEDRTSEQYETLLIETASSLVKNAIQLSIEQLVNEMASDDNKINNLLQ

The target of assay [2] is full-length Orai1-GFP (UniProt Q96D31). The assay is described as follows: co-IP; 'pull-down' of GFP-tagged Orai1, N1-Orai3 or Orai3, blot for AKAP79 (Figure 4H) or calcineurin (Figure S3D); after store depletion according to the abstract, conditions not told otherwise.
Assay [3] has as its target T1, NFAT1(1-460)-GFP fusion protein. The assay is described as follows: co-IP; GFP-tagged protein immunoprecipitated from transfected cells, blot for the partner; lysis buffer with low Ca2+ (4 mM EGTA).
Assay [4] shares this target. Put plainly: co-IP; GFP-tagged protein immunoprecipitated from transfected cells, blot for the partner; lysis buffer with high Ca2+ (2 mM CaCl2). This is another data set of the same source.

No constants are given. Whether binding was seen depends on the method and setting. Binding seen in cells or lysates may run through a third protein. Some binding calls cover weakened binding; strength is not graded here. For some of these results: Where a sequence is shown, tags or fusion partners need not be part of it.

On to “endogenous AKAP79 (from UniProt P24588 1-427)”, for which the binding result in assay [1] is reported as “binds”; in assay [2] it was “binds”; in assay [3] it was “binds”; in assay [4] it was “no binding (condition: high-Ca2+ lysis buffer)”.

Values taken from article PMC4062936.
